Data as given in PubChem BioAssay AID1259308 (NCATS, 2017).
Shown is one part, drawn at random, of about 59,000 reagents tested. About 1,510 of all reagents (2.6%) were called active. 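Calls use total luciferase alone and ignore viability, so some active siRNAs may act by altering cell number.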 The numbers tell different reagents against one gene apart. Further read-outs or replicates are left out here.

Test: 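Candidate targets for better recombinant protein yield in mammalian cells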 (primary screen)
System: human HEK293 embryonic kidney cells stably expressing firefly luciferase (HEK-CMV-Luc2-Hygro)
Knock-down reagent: single siRNA against human genes, 0.8 pmol siRNA per well
Time to read-out: 72 h
Measured: 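Reporter luminescence and viable-cell signal on separate replicate plates, given as percent of non-targeting control and median/MAD z-scores, plus per-cell luciferase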
Reading the numbers: total luciferase, z-score and total luciferase, % of control: higher = more reporter protein produced; luciferase per cell, z-score: higher = more reporter output per viable cell
Active means: 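Active when the median/MAD z-score for overall luciferase is greater than 3; a gene was taken forward for validation with new siRNAs if at least two of its three siRNAs passed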
Meaning of the calls: active = raised luciferase; inactive = no rise

Target gene | reagent | total luciferase, z-score | total luciferase, % of control | luciferase per cell, z-score | call
ADPRS (ADP-ribosylserine hydrolase) | 1 | -0.0709 | 80.5 | -0.284 | inactive
ADPRS (ADP-ribosylserine hydrolase) | 2 | -0.628 | 69.4 | -0.818 | inactive
ADPRS (ADP-ribosylserine hydrolase) | 3 | 2.33 | 128 | 1.01 | inactive
NUTF2 (nuclear transport factor 2) | 1 | -0.788 | 66.2 | -0.205 | inactive
NUTF2 (nuclear transport factor 2) | 2 | -0.655 | 68.9 | 0.805 | inactive
NUTF2 (nuclear transport factor 2) | 3 | 0.234 | 86.5 | 0.158 | inactive
PRNP (prion protein (Kanno blood group)) | 1 | 0.259 | 87 | -0.277 | inactive
PRNP (prion protein (Kanno blood group)) | 2 | -0.623 | 69.5 | -0.838 | inactive
PRNP (prion protein (Kanno blood group)) | 3 | 1.61 | 114 | 1.81 | inactive
RANBP10 (RAN binding protein 10) | 1 | 1.94 | 120 | 0.871 | inactive
RANBP10 (RAN binding protein 10) | 2 | 0.319 | 88.2 | 0.0382 | inactive
RANBP10 (RAN binding protein 10) | 3 | 2.81 | 138 | 1.96 | inactive
ZNF44 (zinc finger protein 44) | 1 | 2.33 | 128 | 1.5 | inactive
ZNF44 (zinc finger protein 44) | 2 | -0.419 | 73.6 | 0.424 | inactive
ZNF44 (zinc finger protein 44) | 3 | 0.928 | 100 | 0.287 | inactive
CHKA (choline kinase alpha) | 1 | 0.043 | 82.7 | -0.0874 | inactive
CHKA (choline kinase alpha) | 2 | 3.19 | 145 | 3.03 | active
CHKA (choline kinase alpha) | 3 | -0.0155 | 81.6 | -0.0347 | inactive
ZNF576 (zinc finger protein 576) | 1 | 0.165 | 85.2 | 1.1 | inactive
ZNF576 (zinc finger protein 576) | 2 | -0.0489 | 80.9 | -0.191 | inactive
ZNF576 (zinc finger protein 576) | 3 | -0.0741 | 80.4 | -0.594 | inactive
ZNF20 (zinc finger protein 20) | 1 | -0.22 | 77.5 | 0.779 | inactive
ZNF20 (zinc finger protein 20) | 2 | -0.211 | 77.7 | 0.805 | inactive
ZNF20 (zinc finger protein 20) | 3 | -0.662 | 68.7 | -0.846 | inactive
ALDH3B2 (aldehyde dehydrogenase 3 family member B2) | 1 | -0.369 | 74.5 | -0.957 | inactive
ALDH3B2 (aldehyde dehydrogenase 3 family member B2) | 2 | 0.781 | 97.4 | 0.471 | inactive
ALDH3B2 (aldehyde dehydrogenase 3 family member B2) | 3 | 0.646 | 94.7 | 0.96 | inactive
ZNF414 (zinc finger protein 414) | 1 | 0.133 | 84.5 | -0.485 | inactive
ZNF414 (zinc finger protein 414) | 2 | 0.0499 | 82.9 | 1.01 | inactive
ZNF414 (zinc finger protein 414) | 3 | -0.171 | 78.5 | -0.209 | inactive
STC2 (stanniocalcin 2) | 1 | -0.373 | 74.5 | 0.311 | inactive
STC2 (stanniocalcin 2) | 2 | 4.23 | 166 | 2.62 | active
STC2 (stanniocalcin 2) | 3 | -0.601 | 69.9 | -1.23 | inactive
TTBK1 (tau tubulin kinase 1) | 1 | -0.354 | 74.8 | -0.26 | inactive
TTBK1 (tau tubulin kinase 1) | 2 | -0.264 | 76.6 | 0.51 | inactive
TTBK1 (tau tubulin kinase 1) | 3 | -1.68 | 48.5 | -1.66 | inactive
EEIG2 (EEIG family member 2) | 1 | 0.922 | 100 | 1.35 | inactive
EEIG2 (EEIG family member 2) | 2 | -1.08 | 60.5 | -1.14 | inactive
EEIG2 (EEIG family member 2) | 3 | -0.0725 | 80.4 | -0.243 | inactive
KLHL21 (kelch like family member 21) | 1 | -0.38 | 74.3 | -0.111 | inactive
KLHL21 (kelch like family member 21) | 2 | -0.0479 | 80.9 | 0.0151 | inactive
KLHL21 (kelch like family member 21) | 3 | -0.234 | 77.2 | -0.014 | inactive
ABCA3 (ATP binding cassette subfamily A member 3) | 1 | 0.216 | 86.2 | -0.231 | inactive
ABCA3 (ATP binding cassette subfamily A member 3) | 2 | -0.109 | 79.7 | 0.131 | inactive
ABCA3 (ATP binding cassette subfamily A member 3) | 3 | -0.308 | 75.8 | -1 | inactive
DNAJC21 (DnaJ heat shock protein family (Hsp40) member C21) | 1 | 0.345 | 88.7 | -0.0542 | inactive
DNAJC21 (DnaJ heat shock protein family (Hsp40) member C21) | 2 | 0.518 | 92.2 | 0.581 | inactive
DNAJC21 (DnaJ heat shock protein family (Hsp40) member C21) | 3 | 0.391 | 89.7 | 0.162 | inactive
RAET1E (retinoic acid early transcript 1E) | 1 | 1.25 | 107 | 0.782 | inactive
RAET1E (retinoic acid early transcript 1E) | 2 | -1.88 | 44.5 | -2.33 | inactive
RAET1E (retinoic acid early transcript 1E) | 3 | -0.247 | 77 | -0.321 | inactive
TMEM129 (transmembrane protein 129, E3 ubiquitin ligase) | 1 | 0.713 | 96.1 | 1.71 | inactive
TMEM129 (transmembrane protein 129, E3 ubiquitin ligase) | 2 | 0.821 | 98.2 | 1.31 | inactive
TMEM129 (transmembrane protein 129, E3 ubiquitin ligase) | 3 | 2.66 | 135 | 1.42 | inactive
LOC400940 | 1 | -0.00789 | 81.7 | 0.351 | inactive
LOC400940 | 2 | 3.56 | 153 | 2.88 | active
LOC400940 | 3 | -0.371 | 74.5 | -0.0181 | inactive
YWHAEP7 | 1 | -0.148 | 78.9 | 0.0981 | inactive
YWHAEP7 | 2 | 2.42 | 130 | 1.74 | inactive
YWHAEP7 | 3 | -0.123 | 79.4 | -0.542 | inactive
HBD (hemoglobin subunit delta) | 1 | 0.31 | 88 | 0.021 | inactive
HBD (hemoglobin subunit delta) | 2 | -1.77 | 46.7 | -1.78 | inactive
HBD (hemoglobin subunit delta) | 3 | 3.51 | 152 | 2.69 | active
TRIP4 (thyroid hormone receptor interactor 4) | 1 | -0.714 | 67.7 | -1.75 | inactive
TRIP4 (thyroid hormone receptor interactor 4) | 2 | 0.829 | 98.4 | 0.836 | inactive
TRIP4 (thyroid hormone receptor interactor 4) | 3 | 1.04 | 103 | 0.378 | inactive
TCTA (T cell leukemia translocation altered) | 1 | 0.276 | 87.4 | -0.032 | inactive
TCTA (T cell leukemia translocation altered) | 2 | -0.15 | 78.9 | -0.124 | inactive
TCTA (T cell leukemia translocation altered) | 3 | 1.87 | 119 | 0.766 | inactive
LY6D (lymphocyte antigen 6 family member D) | 1 | 2.62 | 134 | 1.38 | inactive
LY6D (lymphocyte antigen 6 family member D) | 2 | 0.283 | 87.5 | 0.293 | inactive
LY6D (lymphocyte antigen 6 family member D) | 3 | -0.675 | 68.5 | -0.818 | inactive
HOXC11 (homeobox C11) | 1 | -0.394 | 74 | -0.147 | inactive
HOXC11 (homeobox C11) | 2 | -0.698 | 68 | -0.254 | inactive
HOXC11 (homeobox C11) | 3 | -0.53 | 71.3 | -0.304 | inactive

Entries listed above called active:
Target gene | reagent | total luciferase, z-score | total luciferase, % of control | luciferase per cell, z-score | call
CHKA (choline kinase alpha) | 2 | 3.19 | 145 | 3.03 | active
STC2 (stanniocalcin 2) | 2 | 4.23 | 166 | 2.62 | active
LOC400940 | 2 | 3.56 | 153 | 2.88 | active
HBD (hemoglobin subunit delta) | 3 | 3.51 | 152 | 2.69 | active
